Reference: PMC9070665
No constants are given. Whether binding was seen depends on the method and setting. In cells and extracts the contact can be indirect. Some results given as binding are weak or reduced against the parent protein; the word gives no strength. Tags and fused reporters may be left off the sequences shown.

Amino acid sequences for entries named in this document (tags omitted).
UniProt Q96S21: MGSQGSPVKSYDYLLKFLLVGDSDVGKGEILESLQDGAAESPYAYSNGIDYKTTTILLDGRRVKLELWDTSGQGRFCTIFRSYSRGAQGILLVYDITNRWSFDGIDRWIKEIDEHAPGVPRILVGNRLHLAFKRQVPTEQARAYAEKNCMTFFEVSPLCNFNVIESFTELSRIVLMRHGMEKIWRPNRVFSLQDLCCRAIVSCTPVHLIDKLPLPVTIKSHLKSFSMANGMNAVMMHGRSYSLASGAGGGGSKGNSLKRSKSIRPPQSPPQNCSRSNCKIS

What was measured:
Experiment in all cases: co-IP; 293T cells co-transfected with HA-Rab40c and one FLAG-tagged PP6 component or PP6R1 deletion mutant; anti-FLAG IP, anti-HA blot
[1] = target: T1, FLAG-PP6c (human) (UniProt O00743)
T1 sequence: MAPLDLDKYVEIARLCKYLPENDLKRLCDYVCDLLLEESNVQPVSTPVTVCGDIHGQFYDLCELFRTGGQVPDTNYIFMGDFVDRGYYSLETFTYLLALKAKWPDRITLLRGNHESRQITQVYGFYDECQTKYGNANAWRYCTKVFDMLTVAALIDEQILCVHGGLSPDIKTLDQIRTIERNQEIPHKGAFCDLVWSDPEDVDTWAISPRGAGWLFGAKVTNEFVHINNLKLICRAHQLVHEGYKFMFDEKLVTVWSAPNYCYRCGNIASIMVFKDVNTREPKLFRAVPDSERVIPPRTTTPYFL

[2] = target: T2, FLAG-PP6R1 (human) (UniProt Q9UPN7)
T2 sequence: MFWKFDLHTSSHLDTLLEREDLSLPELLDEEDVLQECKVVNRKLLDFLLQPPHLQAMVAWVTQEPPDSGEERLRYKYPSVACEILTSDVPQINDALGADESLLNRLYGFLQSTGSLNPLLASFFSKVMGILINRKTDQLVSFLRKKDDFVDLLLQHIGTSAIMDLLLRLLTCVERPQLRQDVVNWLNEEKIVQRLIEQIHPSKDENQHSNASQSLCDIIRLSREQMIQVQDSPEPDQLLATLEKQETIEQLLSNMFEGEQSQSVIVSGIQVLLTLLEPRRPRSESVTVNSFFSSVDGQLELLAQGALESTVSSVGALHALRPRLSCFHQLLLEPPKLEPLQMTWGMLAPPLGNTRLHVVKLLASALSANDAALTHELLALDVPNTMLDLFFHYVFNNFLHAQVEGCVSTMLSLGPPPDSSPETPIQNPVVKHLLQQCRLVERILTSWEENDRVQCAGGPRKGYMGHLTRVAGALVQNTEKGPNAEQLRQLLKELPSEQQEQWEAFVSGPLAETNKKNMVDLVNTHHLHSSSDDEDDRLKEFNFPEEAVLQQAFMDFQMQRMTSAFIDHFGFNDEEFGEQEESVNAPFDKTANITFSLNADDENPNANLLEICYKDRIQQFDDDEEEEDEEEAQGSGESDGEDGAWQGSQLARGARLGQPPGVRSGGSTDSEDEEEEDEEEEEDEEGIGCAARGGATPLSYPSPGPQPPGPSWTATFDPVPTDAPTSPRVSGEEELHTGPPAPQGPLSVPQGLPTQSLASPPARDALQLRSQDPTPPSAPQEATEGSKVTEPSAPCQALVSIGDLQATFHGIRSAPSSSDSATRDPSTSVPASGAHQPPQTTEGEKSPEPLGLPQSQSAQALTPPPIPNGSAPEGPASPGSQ

[3] = target: T3, FLAG-ANKRD44 (human) (UniProt Q8N8A2)
T3 sequence: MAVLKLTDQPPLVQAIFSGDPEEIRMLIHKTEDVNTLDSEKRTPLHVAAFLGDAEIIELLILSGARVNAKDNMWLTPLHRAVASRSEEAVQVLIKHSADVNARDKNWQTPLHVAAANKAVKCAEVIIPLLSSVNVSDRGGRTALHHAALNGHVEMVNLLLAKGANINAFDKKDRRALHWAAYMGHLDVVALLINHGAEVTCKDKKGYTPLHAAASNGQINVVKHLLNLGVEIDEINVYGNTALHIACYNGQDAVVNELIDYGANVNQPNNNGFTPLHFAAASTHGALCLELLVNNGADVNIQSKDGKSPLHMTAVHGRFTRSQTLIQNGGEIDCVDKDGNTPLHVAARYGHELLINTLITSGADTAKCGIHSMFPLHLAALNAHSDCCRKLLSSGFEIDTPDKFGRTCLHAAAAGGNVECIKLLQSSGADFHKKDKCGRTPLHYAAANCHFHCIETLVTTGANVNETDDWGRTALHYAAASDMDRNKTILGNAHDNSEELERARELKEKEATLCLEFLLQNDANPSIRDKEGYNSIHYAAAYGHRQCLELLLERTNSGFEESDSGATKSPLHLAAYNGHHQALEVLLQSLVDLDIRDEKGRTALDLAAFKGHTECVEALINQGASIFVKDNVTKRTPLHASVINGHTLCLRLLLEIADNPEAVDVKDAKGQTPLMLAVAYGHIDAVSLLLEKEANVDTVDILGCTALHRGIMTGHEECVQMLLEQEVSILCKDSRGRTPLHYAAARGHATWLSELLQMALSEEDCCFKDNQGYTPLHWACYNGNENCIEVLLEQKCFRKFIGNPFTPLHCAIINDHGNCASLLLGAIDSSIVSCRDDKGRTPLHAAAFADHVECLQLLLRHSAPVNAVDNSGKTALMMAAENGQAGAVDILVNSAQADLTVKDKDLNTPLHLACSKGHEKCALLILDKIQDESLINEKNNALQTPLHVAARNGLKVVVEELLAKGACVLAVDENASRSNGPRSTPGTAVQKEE

[4] = target: T4, FLAG-PP6R1(518-881) (human) (UniProt Q9UPN7)
T4 sequence: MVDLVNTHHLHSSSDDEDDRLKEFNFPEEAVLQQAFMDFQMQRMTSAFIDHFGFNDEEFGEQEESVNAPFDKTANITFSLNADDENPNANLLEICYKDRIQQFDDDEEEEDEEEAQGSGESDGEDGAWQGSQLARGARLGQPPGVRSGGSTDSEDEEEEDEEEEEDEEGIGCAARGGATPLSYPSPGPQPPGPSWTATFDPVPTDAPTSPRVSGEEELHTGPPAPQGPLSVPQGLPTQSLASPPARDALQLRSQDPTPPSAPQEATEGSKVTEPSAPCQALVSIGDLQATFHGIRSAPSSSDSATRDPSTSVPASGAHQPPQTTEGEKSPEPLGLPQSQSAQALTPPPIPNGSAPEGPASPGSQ

Measured: binding

HA-Rab40c (from UniProt Q96S21 1-281)
binds: [1] | [2] | [3] | [4]
